From PubChem BioAssay AID2685 (National Center for Advancing Translational Sciences (NCATS), 2010)
In all, about 320,000 compounds went through this assay and about 2,100 (0.66%) were called active. The shares of active, inactive and inconclusive entries below differ from those in the screen. The call rests on the fitted dose curve; in most records, active means well fitted inhibition curve with a large enough effect in the signal ratio, with a control signal flat (not every such curve was filed as active); inconclusive means small, poorly fitted or top-dose-only effect, or effect the other way, or a change in a side signal; inactive means flat fitted curve, though single readings scatter; the % refers to the signal ratio. Potencies beside an inconclusive call are fits to weak or partial responses and may not hold up.

assay: qHTS Assay for Lipid Storage Modulators in Drosophila S3 Cells; conditions: BODIPY lipid droplet fluorescence, 18-24 h, cells fed with added oleic acid; lipid storage change, negative = inhibition: at 46.1 µM (top of the series) unless noted
How it was run: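 Drosophila S3 cells got compounds at several concentrations plus oleic acid (400 uM solution). Laser-scanning cytometry with 488 nm excitation read lipid droplets at 500-530 nm and cells at 575-640 nm. Percent activity was relative to 20 uM Triacsin C.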
On the % scale 0 is the no-effect control and ±100 the full control effect; potency means the concentration at half of the fitted maximal effect.

Row | SMILES | lipid storage change, negative = inhibition | Potency | outcome
1 | Cc1[nH]c2ccccc2c1/C=N/NC(=O)c1cccc(S(=O)(=O)Nc2ccccc2Cl)c1 | inconclusive: 11.8% | – | –
2 | Cc1onc(-c2ccccc2Cl)c1C(=O)NC(=S)Nc1ccccc1F | inconclusive: 24.4% | – | –
3 | CCn1c(CC(=O)Nc2ccccc2OC)nnc1SCC(=O)Nc1ccccc1F | inconclusive: 22.5% | – | –
4 | C=CCc1c(C)nc(-c2ccccc2)nc1Nc1ccccc1O | – | inconclusive: 29.1 µM [cytotoxic, single point] | –
5 | FC(F)(F)c1cccc(NC(=S)NC2CCCC2)c1 | – | active: 18.4 µM | –
6 | CCN(CC)CCCNC(=O)Cn1cnc2ccc(S(=O)(=O)N3CCC(C)CC3)cc2c1=O | inconclusive: -32.5% | – | –
7 | CCN(CC)C(=O)C1CCN(S(=O)(=O)c2ccc(-n3cnnn3)cc2)CC1 | inactive: -3.69% | – | –
8 | COc1ccc(CNC(=O)CCCC2=NS(=O)(=O)c3ccccc3N2)cc1 | inconclusive: -61% | – | –
9 | COc1ccc(CN2CCN(CCc3ccccc3)C(CCO)C2)c(Cl)c1OC (configuration not stated) | inconclusive: 16.2% | – | –
10 | CCN(CC)c1nc(C)nc2c1sc(=S)n2C | – | inconclusive: 29.1 µM [cytotoxic, single point] | –
11 | O=C(Cc1cnc2ncnn2c1)N1CCc2c([nH]c3ccccc23)C1c1ccccc1F (configuration not stated) | inconclusive: 6.1% | – | –
12 | Cc1ccc2c(c1)N(CC(=O)NC1CCC(C)CC1)C(=O)c1cccnc1O2 (configuration not stated) | – | inconclusive: 2.06 µM [activator, partial curve, poor fit] | –
13 | COCCOC(=O)c1[nH]c2c(c1C)C(=O)CC(c1ccc(OC)c(OC)c1)C2 (configuration not stated) | inconclusive: -12.6% | – | –
14 | COc1ccccc1N(C)S(=O)(=O)c1ccc(C(=O)OCC(=O)NCc2ccco2)cc1 | inconclusive: -52% [at 0.0737 µM] | – | –
15 | CCN(CC(=O)Nc1ccc(OC)c(OC)c1)S(=O)(=O)c1ccc(C)cc1 | – | inconclusive: 0.92 µM [activator, full curve, poor fit] | –
16 | CCOC(=O)Cn1c(C)[n+](CC(=O)c2ccccc2)c2ccccc21 | inconclusive: -17.8% | – | –
17 | CNC(=O)c1oc(-c2ccccc2)nc1C | inconclusive: -15.5% | – | –
18 | O=C(NCc1ccc(Cl)cc1)C1CCN(C(=O)Cc2ccccc2)CC1 | – | inconclusive: 0.13 µM [falling, full curve, poor fit] | –
19 | NC(=O)c1cc2ccccc2o/c1=N\NC(=O)c1ccco1 | inconclusive: 11% | – | –
20 | N#C/C(=C\c1ccccc1Cl)C(=O)Nc1ccccn1 | – | active: 25.9 µM | –
21 | COc1ccc([N+](=O)[O-])cc1NC(=O)CCN1CCN(C)CC1 | inconclusive: -18.3% | – | –
22 | COCCNC(=O)CN(C(=O)c1ccc(N2CCCC2)nc1)c1ccc(F)c(Cl)c1 | – | inconclusive: 29.1 µM [falling, single point] | –
23 | COc1ccccc1CCNC(=O)c1c(C)nn(CC(C)C)c1Cl | inconclusive: -10.1% | – | –
24 | O=C(N/N=C/c1ccccc1C(=O)O)c1ccccc1Br | inconclusive: 7.8% | – | –
25 | Cc1ccc(NC(=O)NC2CC(=O)N(c3ccc4c(c3)OCCO4)C2)cc1 (configuration not stated) | – | inconclusive: 29.1 µM [falling, single point] | –
26 | Cc1cccc(NC(=O)CNC(=O)COc2ccc(C(=O)c3ccc(F)cc3)cc2)c1C | inactive: 26.3% | – | –

An excerpt from the list above:
Row | SMILES | lipid storage change, negative = inhibition | Potency | outcome
9 | COc1ccc(CN2CCN(CCc3ccccc3)C(CCO)C2)c(Cl)c1OC (configuration not stated) | inconclusive: 16.2% | – | –
10 | CCN(CC)c1nc(C)nc2c1sc(=S)n2C | – | inconclusive: 29.1 µM [cytotoxic, single point] | –

(more compounds)

Row | SMILES | lipid storage change, negative = inhibition | Potency | outcome
27 | COC(=O)c1ccc(NC(=O)CN2CCOCC2)cc1 | – | inconclusive: 20.6 µM [activator, single point] | –
28 | COc1ccc(-c2csc(NC(=O)c3cccc(N4C(=O)CCC4=O)c3)n2)cc1OC | inactive: -8.17% | – | –
29 | CCCc1nnc(SCC(=O)NC2CC2)n1CC | inconclusive: -7.72% | – | –
30 | CCOc1ccc(-n2c(SCC(=O)O)nc3sc4c(c3c2=O)CCCC4)cc1 | – | inconclusive: 1.84 µM [activator, partial curve] | –
31 | COc1ccc(C(=O)/C=C/Nc2ccc(S(=O)(=O)Nc3cc(OC)nc(OC)n3)cc2)c(OC)c1 | – | active: 29.1 µM | –
32 | Cc1onc(-c2ccccc2)c1C(=O)c1c[nH]c(C(=O)NCCCN2CCOCC2)c1 | inconclusive: -36.4% | – | –
33 | COc1ccc(OC(C)c2ccc(C#N)c(=O)[nH]2)cc1 (configuration not stated) | – | inconclusive: 6.51 µM [falling, partial curve, poor fit] | –
34 | Cc1cccc(NC(=O)NCc2cccnc2)c1C | – | inconclusive: 13 µM [falling, single point] | –
35 | CC(C)(C)NS(=O)(=O)c1cc2c3c(c1)CCN3C(=O)CC2 | inconclusive: -3.09% | – | –
36 | CC(C)c1cccc(C2=CC(=O)C[C@H](c3ccc(F)cc3)C2)c1 | inactive: 9.98% | – | –
37 | COc1ccc(S(=O)(=O)N2CCOC23CCN(S(=O)(=O)c2ccc([N+](=O)[O-])cc2)CC3)cc1 | inconclusive: -17.2% | – | –
38 | C=CCn1cc(/C=N\NC(=O)c2cc3c(ccc4ccccc43)o2)c2ccccc21 | inconclusive: 33.6% | – | –
39 | CCN(CC(=O)NCc1ccc(Cl)cc1)C(=O)COc1cccc(Cl)c1 | – | inconclusive: 29.1 µM [falling, single point] | –
40 | CC(=O)Nc1cccc(NC(=O)Nc2ccc(C)c(Cl)c2)c1 | inconclusive: -40.4% [at 0.369 µM] | – | –
41 | COc1cc(CN2CCC(n3nccc3NC(=O)CCCc3ccccc3)CC2)ccc1F | – | inconclusive: 0.116 µM [activator, full curve, poor fit] | –
42 | COc1ccc(C2=NC(c3ccccc3)CO2)cc1 (configuration not stated) | inactive: -12.2% | – | –
43 | CC(NC(=O)c1ccccc1Cl)C(=O)NCc1cccs1 (configuration not stated) | – | inconclusive: 6.51 µM [falling, single point] | –
44 | O=C(Cc1coc2ccc3ccccc3c12)N1CCc2ccccc21 | inconclusive: -31.2% [at 0.0737 µM] | – | –
45 | O=C(Nc1ccncc1)C1COc2ccccc2O1 (configuration not stated) | inconclusive: -39.6% | – | –
46 | CCc1nn(C(CC)C(=O)NCc2cccs2)c(=O)c2cc3occc3n12 (configuration not stated) | – | – | inactive [at 46.1 µM]
47 | CCCCNC(=O)NNC(=O)C1CC1(c1ccccc1)c1ccccc1 (configuration not stated) | inconclusive: 10.3% | – | –
48 | O=C(O)CC1=C(Nc2ccccc2)C(=O)N(c2ccccc2)C1c1ccc(Br)cc1 (configuration not stated) | – | inconclusive: 32.6 µM [falling, single point] | –
49 | Cc1cccc(C)c1OCc1cc(C(=O)N(C)Cc2cc(C3CC3)n[nH]2)no1 | inconclusive: -26.1% | – | –
50 | O=C(c1ccco1)N1CCN(c2ccnc3cc(Cl)ccc23)CC1 | – | inconclusive: 32.6 µM [falling, single point] | –
51 | Cc1cc(C)cc(OCC(O)CN2CC(C)OC(C)C2)c1 (configuration not stated) | inconclusive: 13.9% | – | –
52 | N#CC(C#N)=C1C=CC=CN1/C(=C\c1ccco1)C(=O)c1ccc(Br)cc1 | – | inconclusive: 5.17 µM [cytotoxic, full curve] | –

Row | SMILES | lipid storage change, negative = inhibition | Potency | outcome
53 | Cc1ccc(/C=N/NC(=O)CSc2nc3ccccc3s2)o1 | – | inconclusive: 0.461 µM [falling, partial curve, poor fit] | –
54 | CCCCN1CC(=O)N2[C@H]3c4cc(C)ccc4OC[C@@H]3[C@H](C(=O)OCC)[C@]2(C)C1=O | – | inconclusive: 1.16 µM [falling, single point] | –
55 | CCn1c(SC(C)C(=O)Nc2ccc(N3CCOCC3)cc2)nnc1-c1ccco1 (configuration not stated) | inconclusive | – | –
56 | COC(=O)C1=C(C)N(Cc2ccccc2)C(=NCCc2c[nH]c3ccccc23)N[C@H]1c1ccccc1 | inconclusive: -23.2% | – | –
57 | COc1ccccc1Nc1ccc([N+](=O)[O-])cn1 | inactive: 3.34% | – | –
58 | CCOC(=O)C1(Cc2cccc(OC)c2)CCN(CC(O)CO)CC1 (configuration not stated) | inconclusive: -30.8% | – | –
59 | O=[N+]([O-])c1ccccc1/C=C/CN1CCCC(CO)C1 (configuration not stated) | inconclusive: 1.77% | – | –
60 | Cc1c(NS(=O)(=O)c2ccc([N+](=O)[O-])cc2)c(=O)n(-c2ccccc2)n1C | inconclusive: 24.8% | – | –
61 | N#Cc1ccc(C(=O)OCC(=O)Nc2cccnc2Cl)cc1 | inconclusive: 12.4% | – | –
62 | CCCNC(=O)c1nnsc1S(=O)c1ccc(Cl)cc1 (configuration not stated) | inconclusive: -91.6% | – | –
63 | COc1cc(C(=O)NNC(=O)COc2ccccc2Cl)ccc1OCC(=O)N1CCOCC1 | inconclusive: 17.2% | – | –
64 | CCCC(=O)N(CCN1CCOCC1)c1nc2cc(C)c(C)cc2s1 | – | inconclusive: 29.1 µM [falling, single point] | –
65 | COc1ccc(CN(C(=O)c2snc(C(N)=O)c2N)C(C(=O)NC2CCCC2)c2ccc(OC)c(OC)c2)cc1 (configuration not stated) | inconclusive: 86.4% | – | –
66 | Cc1ccnc(NC(=O)CCCOc2ccc(Cl)cc2C)c1 | inconclusive: 11% | – | –
67 | Cc1ccc(/C=N/Nc2nncc(-c3ccccc3)n2)o1 | inconclusive: 17% | – | –
68 | O=C(COC(=O)c1cccc(F)c1)Nc1cccnc1Cl | – | inconclusive: 29.1 µM [rising, single point] | –
69 | COc1ccccc1NC(=O)CN(Cc1ccco1)C(=O)c1ccc(-n2nc(C)cc2C)cc1 | inconclusive: -45.4% | – | –
70 | Cc1c2c(nc3ccccc13)OCC2 | inconclusive: -6.25% | – | –
71 | CC(=O)ONC(=Nc1ccccc1)c1nonc1N | – | inconclusive: 0.326 µM [falling, full curve, poor fit] | –
72 | CSc1ccc(/C=C(/NC(=O)c2ccco2)C(=O)N2CCCCC2)cc1 | inconclusive: 64.2% | – | –
73 | Cc1cccc(-n2c(N)c(C(=O)NCCN3CCOCC3)c3nc4ccccc4nc32)c1 | inconclusive: -34.9% | – | –
74 | CCCc1cc(=O)[nH]c(SCC(=O)Nc2ccc(Cl)c(S(=O)(=O)N3CCOCC3)c2)n1 | – | inconclusive: 29.1 µM [falling, single point] | –
75 | CC(C)CCN(C(=S)Nc1cccc(C(F)(F)F)c1)C(C)c1ccccn1 (configuration not stated) | – | active: 32.6 µM | –
76 | O=C(Nc1ncc([N+](=O)[O-])s1)c1cccc([N+](=O)[O-])c1 | – | inconclusive: 10.3 µM [falling, partial curve] | –
77 | CC(C)(C)c1ccc(C(=O)N2CCC(C(=O)NCCC3=CCCCC3)CC2)cc1 | – | inconclusive: 14.6 µM [falling, partial curve, poor fit] | –

One compound at a time (already shown):
CCCC(=O)N(CCN1CCOCC1)c1nc2cc(C)c(C)cc2s1 is listed with Potency: inconclusive: 29.1 µM [falling, single point]
CC(C)(C)c1ccc(C(=O)N2CCC(C(=O)NCCC3=CCCCC3)CC2)cc1 is listed with Potency: inconclusive: 14.6 µM [falling, partial curve, poor fit]
